Primary screen of a compound library

By UniProt entry, the sequences of proteins in these tests, tags left out.
UniProt E9BF75, entry or part of it: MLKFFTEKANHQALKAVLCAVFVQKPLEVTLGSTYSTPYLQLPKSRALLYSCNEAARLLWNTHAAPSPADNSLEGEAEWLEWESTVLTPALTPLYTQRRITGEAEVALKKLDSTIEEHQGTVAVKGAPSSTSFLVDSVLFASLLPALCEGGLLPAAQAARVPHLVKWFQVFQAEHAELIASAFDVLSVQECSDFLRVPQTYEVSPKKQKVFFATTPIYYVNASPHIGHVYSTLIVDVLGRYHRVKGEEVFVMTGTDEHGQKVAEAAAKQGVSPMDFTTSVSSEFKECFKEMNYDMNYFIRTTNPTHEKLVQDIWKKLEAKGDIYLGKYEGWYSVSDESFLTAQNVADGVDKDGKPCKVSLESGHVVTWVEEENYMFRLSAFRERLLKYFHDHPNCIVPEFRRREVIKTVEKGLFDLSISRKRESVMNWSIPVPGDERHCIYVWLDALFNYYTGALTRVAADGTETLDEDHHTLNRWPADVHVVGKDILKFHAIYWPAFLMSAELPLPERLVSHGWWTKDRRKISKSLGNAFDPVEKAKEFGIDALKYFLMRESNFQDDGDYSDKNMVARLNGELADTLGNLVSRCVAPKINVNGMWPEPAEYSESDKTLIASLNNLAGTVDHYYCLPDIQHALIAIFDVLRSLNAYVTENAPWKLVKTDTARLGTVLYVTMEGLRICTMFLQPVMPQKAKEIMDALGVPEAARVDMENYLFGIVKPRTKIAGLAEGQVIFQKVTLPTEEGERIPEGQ

The values are deposited in ChEMBL (CHEMBL3988442, “University of Dundee, Small-Polar-MMV Screening Library” (2021)).

Mtb heat-shock: 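Assay on Mycobacterium tuberculosis, filed only as a heat shock assay from Cornell; the read-out is not stated. The concentration is filed as 10 mM, unlikely as a test dose, so the dose is not known. The record gives no direction; compounds that gave an IC50 in retests scored well above the rest, so higher reads as stronger inhibition. About 69,000 compounds were tested under these conditions; 1.4% (about 930) showed 50% or more at least once.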
Mtb growth Cornell: 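Whole-cell assay for inhibitors of Mycobacterium tuberculosis growth, labelled Cornell in the record; the read-out is not stated. The concentration is filed as 10 mM, unlikely as a test dose, so the dose is not known. The record gives no direction; compounds strong in two other growth screens of this library score well above the rest, so higher reads as stronger inhibition. Of about 53,000 compounds tested this way, about 900 (1.7%) reached 50% or more in at least one test.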
LdMetRS: 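Primary screen of methionyl-tRNA synthetase; the read-out is not stated. Target: Methionyl-tRNA synthetase (putative), Leishmania donovani (UniProt E9BF75). The test concentration is not given. Values are per cent inhibition. Size under these conditions: about 68,000 compounds, about 24 of them at 50% or above in at least one test.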

All values are in %. The controls that fix the scale are not given in the record; negative values are as filed. The compounds are a random part of those screened.

{"compound": "Cn1cc(CN2CCC[C@]3(C[C@@H](Oc4ccccn4)CO3)C2)cn1.O=C(O)C(F)(F)F.O=C(O)C(F)(F)F", "Mtb heat-shock": 27.52, "Mtb growth Cornell": 4.129}
{"compound": "O=C(NCCCn1ccnn1)C1CCCN(C2CCCC2)C1", "stereo": "centres unmarked", "Mtb heat-shock": 4.164, "Mtb growth Cornell": 23.52, "LdMetRS": 9.938}
{"compound": "COc1cccc(N2CCN(CCC(=O)NC3CCCC3)CC2)c1", "Mtb heat-shock": -30.98, "Mtb growth Cornell": 11.65, "LdMetRS": 16.2}
{"compound": "COc1ccc(NC(=O)C2OC(c3cccs3)=NN2C(C)=O)cc1", "stereo": "centres unmarked", "Mtb heat-shock": 19.1, "Mtb growth Cornell": 9.347, "LdMetRS": 12.5}
{"compound": "Cc1nc(CN2CCN(c3cncc(Cl)n3)CC2)no1", "Mtb heat-shock": -21.41, "Mtb growth Cornell": 20.57, "LdMetRS": 14.02}
{"compound": "CC(C)=CCC1(CO)CCCN(Cc2cnc(N3CCOCC3)nc2)C1", "stereo": "centres unmarked", "Mtb heat-shock": -19.4, "LdMetRS": 3.014}
{"compound": "COc1ccc2c(ccn2CCC(=O)Nc2nc[nH]n2)c1", "Mtb heat-shock": -0.8117, "Mtb growth Cornell": 31.87, "LdMetRS": 18.59}
{"compound": "O=C(NCCn1ccnc1)c1ccn(-c2ccc(F)cc2)n1", "Mtb heat-shock": -6.635, "Mtb growth Cornell": -37.98, "LdMetRS": 17.14}
{"compound": "CC(C)NC(=O)CC1COC2(CCN(Cc3ccccc3)CC2)C1.O=C(O)C(F)(F)F", "stereo": "centres unmarked", "Mtb heat-shock": -5.683, "Mtb growth Cornell": 11.7}
{"compound": "CCS(=O)(=O)N1CCC2(CCN(Cc3cccc(OC)c3)CC2)CC1.O=C(O)C(F)(F)F", "Mtb heat-shock": -12.83}
{"compound": "Cc1cccc(C(=O)N2CCCn3c(CN4CCCCC4)nnc3C2)c1", "Mtb heat-shock": 0.03513, "Mtb growth Cornell": 10.83, "LdMetRS": 15.38}
{"compound": "CCOc1ccccc1-n1c(C2CC2)n[nH]c1=O", "Mtb heat-shock": -34.09, "Mtb growth Cornell": -24.79, "LdMetRS": 7.43}
{"compound": "O=C(CN1CCC(c2ccnn2CCO)CC1)NCc1cccs1", "Mtb heat-shock": 19.8, "Mtb growth Cornell": 6.912, "LdMetRS": 6.103}
{"compound": "O=c1n(CC2CC2)nc(C2CCNCC2)n1Cc1ccccc1", "Mtb heat-shock": -5.768, "LdMetRS": 8.242}
{"compound": "O=C(CC1CC1)N(Cc1cccnc1)CC1CCN(C2CCCC2)CC1", "Mtb heat-shock": -14.19, "Mtb growth Cornell": 20.52, "LdMetRS": 14.69}
{"compound": "COCCN(CCC#N)Cn1cc(Cl)cn1", "Mtb heat-shock": 12.18, "Mtb growth Cornell": 16.93, "LdMetRS": 9.399}
{"compound": "O=C(O)C(F)(F)F.O=C(O)C(F)(F)F.c1cc(CN2CCC3(CCOCC3COCC3CC3)CC2)ccn1", "stereo": "centres unmarked", "Mtb heat-shock": -1.925}
{"compound": "CC1(c2ncc(CN3CCSCC3)cn2)CCCCO1", "stereo": "centres unmarked", "Mtb heat-shock": -5.379, "Mtb growth Cornell": 17.61, "LdMetRS": 6.977}
{"compound": "Cc1nccn1C1CCCN(C(=O)c2ccc3nncn3c2)C1", "stereo": "centres unmarked", "Mtb heat-shock": -11.95, "Mtb growth Cornell": -24.85, "LdMetRS": 17.95}
{"compound": "CCN1CCC(NC(=O)CN2CCCC2Cn2cc(C)cn2)CC1", "stereo": "centres unmarked", "Mtb heat-shock": 18.12, "Mtb growth Cornell": -42.28, "LdMetRS": 20.34}
{"compound": "O=C1NC[C@H]2CN(C3CCOCC3)CCN12", "LdMetRS": 1.504}
{"compound": "O=C(O)C(F)(F)F.[H][C@@]12CN(CC3CCCCC3)C[C@]1([H])OCCN2c1ncc(F)cn1", "Mtb heat-shock": -15.62}
{"compound": "CCn1ccc(-c2cc(NCCCOc3ccccc3C)nc(C)n2)n1", "Mtb heat-shock": 105.6, "Mtb growth Cornell": 93.67, "LdMetRS": 28.48}
{"compound": "NC(=O)C(NC(=O)Cc1cnn(-c2ccccc2)n1)c1ccccc1", "stereo": "centres unmarked", "Mtb heat-shock": 12.62, "Mtb growth Cornell": 16.34, "LdMetRS": 7.258}
{"compound": "CC(C)N1CCN(C(=O)Nc2cnc3c(cnn3C(C)C)c2)CC1", "Mtb heat-shock": -3.152, "LdMetRS": 20.67}
{"compound": "Cc1ncc(CN(C)C2CCCN(CCc3ccccc3)C2)n1C", "stereo": "centres unmarked", "Mtb heat-shock": -28.82, "Mtb growth Cornell": 14.87, "LdMetRS": 14.05}
{"compound": "O=C1O[C@@H]2CN(c3ccncc3)C[C@@H]2N1CCCc1ccc(F)cc1", "LdMetRS": 0.4963}
{"compound": "O=C(c1cscn1)N1CCc2ncc(CN3CCCC3)n2CC1", "LdMetRS": 15.69}
{"compound": "COCCc1noc(-c2ccc(=O)[nH]c2)n1", "Mtb heat-shock": 0.09065, "Mtb growth Cornell": 3.96, "LdMetRS": 14.29}
{"compound": "O=C(C1CC1)N1CCC(C(=O)N2CCC(c3ccc(F)cc3)C2)CC1", "stereo": "centres unmarked", "Mtb heat-shock": -4.37, "Mtb growth Cornell": 1.748, "LdMetRS": 4.177}

4 of the entries, repeated:

{"compound": "NC(=O)C(NC(=O)Cc1cnn(-c2ccccc2)n1)c1ccccc1", "stereo": "centres unmarked", "Mtb heat-shock": 12.62, "Mtb growth Cornell": 16.34, "LdMetRS": 7.258}
{"compound": "O=C1O[C@@H]2CN(c3ccncc3)C[C@@H]2N1CCCc1ccc(F)cc1", "LdMetRS": 0.4963}
{"compound": "CC(C)=CCC1(CO)CCCN(Cc2cnc(N3CCOCC3)nc2)C1", "stereo": "centres unmarked", "Mtb heat-shock": -19.4, "LdMetRS": 3.014}
{"compound": "Cn1cc(CN2CCC[C@]3(C[C@@H](Oc4ccccn4)CO3)C2)cn1.O=C(O)C(F)(F)F.O=C(O)C(F)(F)F", "Mtb heat-shock": 27.52, "Mtb growth Cornell": 4.129}